No constants are given. Whether binding was seen depends on the method and setting. Binding seen in cells or lysates may run through a third protein. Some entries that bind do so weakly or less than the wild type.
Legend:
[1] = biological target: Human telomerase reverse transcriptase (human (endogenous in SGC7901)) (UniProt O14746); test: co-IP; cytoplasm and nuclear lysates of SGC7901 cells; IP with anti-hTERT or anti-c-Myc, then immunoblot
[2] = biological target: Human telomerase reverse transcriptase (human (endogenous in SGC7901)) (UniProt O14746); test: co-IP; total cell lysates of SGC7901 cells (same results in MKN45); 500 ug extract with 5 ug anti-hTERT or anti-c-Myc antibody, 4 h at 4°C, Protein G magnetic beads, four washes; rabbit IgG as negative control; also after hTERT overexpression or hTERT knock-down (Figure 3G)

Amino acid sequences for entries named in this document (tags omitted).
UniProt O14746: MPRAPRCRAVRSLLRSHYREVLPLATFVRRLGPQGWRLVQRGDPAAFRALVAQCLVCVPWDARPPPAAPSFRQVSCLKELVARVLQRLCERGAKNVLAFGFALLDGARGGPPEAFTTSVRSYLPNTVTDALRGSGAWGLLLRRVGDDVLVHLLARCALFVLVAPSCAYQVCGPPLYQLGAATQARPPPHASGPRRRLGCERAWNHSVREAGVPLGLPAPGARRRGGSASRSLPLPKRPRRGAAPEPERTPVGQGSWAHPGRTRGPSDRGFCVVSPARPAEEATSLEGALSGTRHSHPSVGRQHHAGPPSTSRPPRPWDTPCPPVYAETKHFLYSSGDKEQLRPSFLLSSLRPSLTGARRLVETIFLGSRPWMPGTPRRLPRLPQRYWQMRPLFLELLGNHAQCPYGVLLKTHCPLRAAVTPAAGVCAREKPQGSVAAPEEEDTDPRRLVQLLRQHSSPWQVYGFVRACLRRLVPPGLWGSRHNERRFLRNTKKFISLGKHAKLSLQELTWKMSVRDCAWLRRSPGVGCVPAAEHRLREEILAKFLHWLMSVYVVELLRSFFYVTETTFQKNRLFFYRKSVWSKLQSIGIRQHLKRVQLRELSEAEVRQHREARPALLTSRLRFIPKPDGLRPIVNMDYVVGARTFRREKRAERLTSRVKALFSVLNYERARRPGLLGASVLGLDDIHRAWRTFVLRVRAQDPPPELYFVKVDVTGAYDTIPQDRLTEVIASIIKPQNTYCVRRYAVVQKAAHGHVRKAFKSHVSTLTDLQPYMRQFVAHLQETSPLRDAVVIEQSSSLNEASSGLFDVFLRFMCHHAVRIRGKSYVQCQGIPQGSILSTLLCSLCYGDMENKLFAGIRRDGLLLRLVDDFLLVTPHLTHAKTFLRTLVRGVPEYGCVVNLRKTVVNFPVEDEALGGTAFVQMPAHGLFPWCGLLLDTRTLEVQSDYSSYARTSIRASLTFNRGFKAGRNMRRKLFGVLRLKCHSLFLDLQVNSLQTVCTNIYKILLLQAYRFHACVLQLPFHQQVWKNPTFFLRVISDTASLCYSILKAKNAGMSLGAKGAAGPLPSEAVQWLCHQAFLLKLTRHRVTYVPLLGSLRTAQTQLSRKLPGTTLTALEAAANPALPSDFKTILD
UniProt P01106: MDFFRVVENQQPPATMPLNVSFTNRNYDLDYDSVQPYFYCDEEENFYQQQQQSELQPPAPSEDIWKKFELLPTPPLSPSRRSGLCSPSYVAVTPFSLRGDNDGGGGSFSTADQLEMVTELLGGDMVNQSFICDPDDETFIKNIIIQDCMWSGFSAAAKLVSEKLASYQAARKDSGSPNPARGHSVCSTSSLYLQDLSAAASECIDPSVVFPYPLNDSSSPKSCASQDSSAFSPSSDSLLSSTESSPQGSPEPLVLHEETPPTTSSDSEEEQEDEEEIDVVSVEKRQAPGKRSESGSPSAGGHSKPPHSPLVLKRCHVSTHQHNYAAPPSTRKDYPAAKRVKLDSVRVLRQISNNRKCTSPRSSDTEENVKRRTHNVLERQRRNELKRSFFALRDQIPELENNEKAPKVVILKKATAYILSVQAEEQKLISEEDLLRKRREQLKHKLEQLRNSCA

- binding [1]: binds
- binding [2]: binds
Substance: c-Myc (from UniProt P01106 1-454)
